# Laboratory results from patent publication US7601846B2, “Compounds having activity as inhibitors of apoptosis” (The Regents of the University of California, priority 2001, dated 2009).
# For at least one compound, name, drawing or mass did not settle the structure.
# Test system: PUMA
# Test: PUMA protein expression in DEX-treated thymocytes (western blot)
# Assay type: cell-based, mouse
# Settings: thymocytes pretreated with 10 μM compound, 5 μM dexamethasone 6 hours, FIG. 6
# Protocol: Thymocytes were pretreated with 10 μM of the indicated compounds and then exposed to 5 μM of dexamethasone for 6 hours. The cytosolic proteins were fractionated and then separated on a 4-12% gradient gel by SDS-PAGE and transferred to a PDVF membrane, which was probed with antibodies to PUMA and actin.
# After removal of medium, cells were disrupted in lysis buffer (10 mM HEPES pH 7.9, 10 mM KCl, 0.1 mM EDTA, 0.1 mM EGTA, 1 mM dithiothreitol, 0.5 mM phenylmethylsulfonyl fluoride, and 0.6% NP-40) on ice. The nuclei were separated by centrifugation and the cytoplasmic sample removed. The nuclear pellets were resuspended in (20 mM HEPES pH 7.9, 0.4 M NaCl, 1.0 mM EDTA, 1.0 mM EGTA, 1 mM dithiothreitol, 0.1 mM phenylmethylsulfonyl fluoride) and the insoluble material was removed by centrifugation. The samples were heated to 70° C. for 10 minutes in loading buffer with 10 mM DTT. Each lane of an SDS-PAGE gel was loaded with 20 μg of protein. After electrophoresis, the proteins were transferred to a polyvinylidene difluoride (PVDF) membrane, blocked with 2% I-block™ (Tropix Inc, Bedford, Mass.) containing 0.05% Tween-20 in PBS, and then incubated with anti-PUMA (AbCam, Inc., Cambridge, Mass.). Horseradish peroxidase-conjugated anti-IgG (Santa Cruz Laboratories, Santa Cruz, Calif.) was used as the secondary antibody. […]
smiles,measurement,value
"C[C@@H]1C[C@H]2[C@@H]3CCC4=CC(=O)C=C[C@]4(C)[C@@]3(F)[C@@H](O)C[C@]2(C)[C@@]1(O)C(=O)CO [Dexamethasone, reference compound]",PUMA protein expression (western blot),induced
